Percent effect of library compounds

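Growth of Mycobacterium tuberculosis over 3 days (7H9 medium with glucose and tyloxapol); the read-out is not stated. Tested at 50 µM. Direction is inferred from retests: higher values go with more growth inhibition. Size under these conditions: about 69,000 compounds, about 760 of them at 50% or above in at least one test.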

Results are given as percent effect. The record does not define 0% and 100%; most values in the screen are far below 50% and negative numbers occur (in some assays of this library far below -100). This is an unselected part of the compounds tested. Two or more numbers in one place are separate tests of the same structure; such repeats can differ widely.

| compound | Percent Effect |
|---|---|
| `Cc1ccc(NC(=O)[C@@H]2C[C@H](C(=O)O)CN(Cc3sccc3C)C2)cn1` | -36.34% and -5.483% |
| `Nc1nc2c(c(NC(Cn3cccn3)c3ccccc3)n1)CCNCC2` (centres unmarked) | -2.467% |
| `CC(C)c1nnc2n1CCN(Cc1cc(Cl)c3c(c1)OCO3)C2` | 26.08% |
| `[H][C@]12CC[C@]([H])(CN(Cc3nnc(C4CC4)o3)C1)N(Cc1cscn1)C2=O` | -7.247% |
| `COc1ccccc1-c1nc(C(=O)N2CCOCC2)n2ccncc12` | 19.02% |
| `Cc1nn(C)cc1CNC(=O)c1cn(CCC2CCCCN2)nn1` (centres unmarked) | 24.27% |
| `O=C(NCCCNC(=O)C1CCC1)NCCn1cccc1` | -4.538% |
| `CC1(C)Cc2c(cnn2-c2ccccc2)C(NC2CCSCC2)C1` (centres unmarked) | 51.19% and 10.37% |
| `O=C(O)C(F)(F)F.O=C(O)C(F)(F)F.[H][C@]12CCN(Cc3nccs3)[C@@]1([H])CC[C@H](COCc1cccnc1)O2` | 17.25% |
| `CNc1nc(N2C[C@H](NC(=O)CCOC)[C@@H](C3CC3)C2)nc2c1CCC2` | -4.318% and -0.05844% |
| `CN1CCC(N2CCOC[C@H](OCC(=O)N(C)C)C2)CC1` | -5.74% and 0.07199% |
| `Cc1cnn(CC2CN(Cc3nc(-c4cccnc4)no3)CCO2)c1` (centres unmarked) | -8.096% |
| `O=C(c1ccncc1)N1CCCC1c1nc(O)cc(-c2ccccn2)n1` (centres unmarked) | -2.599% |
| `Cc1cc(C)nc(N2CC[C@H](Oc3ccccc3F)[C@@H](O)CC2)n1` | 12.31% |
| `CNc1cncc(C2CCCN2Cc2c[nH]cn2)n1` (centres unmarked) | 2.662% |
| `O=C1CC(c2ccncc2)C2(CCN(Cc3cccnc3)CC2)N1` (centres unmarked) | -14.93% |
| `CCc1nc(C2CCCN2CCn2cncn2)no1` (centres unmarked) | 12.6% |
| `CNC(=O)C1Cn2ccnc2C2(CCN(Cc3csc(C)n3)CC2)O1` (centres unmarked) | -0.1931% and 26.05% |
| `Cc1cnn(CC2CCCN2C(=O)c2csc(-c3nnc[nH]3)n2)c1` (centres unmarked) | 17.11% |
| `COCCO[C@H]1COCCN(Cc2ccc(OC)cc2)C1` | 11.05% and -1.201% |
| `O=C1Nc2ccccc2C12CCCN(Cc1ccncc1)C2` (centres unmarked) | 1.464% and 19.45% |
| `COCCN1C(=O)C2(CCC(C(=O)Nc3ccc(F)cc3)CC2)N=C1C` (centres unmarked) | -0.07347% and 3.399% |
| `Cc1nc(CCCNC(=O)Nc2ccc(F)cc2F)n[nH]1` | 13.73% |
| `COc1ccc(C(=O)NS(=O)(=O)c2ccc(C#N)cc2C(F)(F)F)cc1` | 16.84% |
| `NC(=O)c1ccc(CN2CCCC(O)C2)cc1` (centres unmarked) | -5.552% |
| `COc1ccc2c(=O)n(CC3CCNC3)ccc2c1OC` (centres unmarked) | -1.352% |
| `O=C(O)c1ccn(-c2ccccc2NS(=O)(=O)c2ccccc2)n1` | 5.72% |
| `Cn1cnc2cc(CCC(=O)Nc3n[nH]c(C4CC4)n3)ccc21` | 5.683% and 10.96% |
| `COc1ccccc1CN1C[C@@H](F)[C@@H](OCc2nc3cnccc3[nH]2)C1` | 0.06451% and 11.4% |
| `Cc1c(CN2CCc3nc4sccc4c(=O)n3CC2)cnn1C.Cl` | -2.062% |
| `O=C1CCCN1c1cccc(CNCc2cc(F)ccc2F)c1` | -3.947% |
| `Cn1cccc1C(=O)N1CCc2ccc(=O)n(C)c2CC1` | 10.2% |
| `Cc1ccc(CCCC(=O)N2CCC(CS(N)(=O)=O)CC2)s1` | 10.13% |
| `Cc1nc(C)n(CC2CN(Cc3cccs3)Cc3nccn3C2)n1.O=C(O)C(F)(F)F` (centres unmarked) | -5.58% and -4.414% |
| `CCC(=O)N1CCN(C(=O)Cn2cccn2)CC1` | -9.944% |
| `CN1CC2(CCC1=O)CCN(CC[C@@H](O)c1ccccc1)CC2` | 9.903% |
| `Cc1nc(C)n(CC2CCCN2CC(=O)NCCC#N)n1` (centres unmarked) | 22.87% |
| `O=C(Cc1cccc(F)c1)NCCNc1ncccn1` | 17.61% |
| `OCc1ccc(CN2CCC(n3cc(-c4ccsc4)nn3)CC2)o1` | -13.67% |
| `COc1ccc(OC)c(C(O)CNC(=O)Nc2cc(C)nn2C)c1` (centres unmarked) | -10.96% |
| `c1cncc(-c2noc(CN3CCCC(Cn4cncn4)C3)n2)c1` (centres unmarked) | -58.92% |
| `O=C(CN1CCOc2ccccc2C1)NCc1cc2n(n1)CCNC2` | -20.93% |
| `O=C(CCc1nc2ccccc2[nH]1)NC1CCOC2(CCOCC2)C1` (centres unmarked) | -36.06% and -9.889% |
| `Cc1c(NC(C)C(C)C)cccc1C(=O)NCc1nnc(C)n1C` (centres unmarked) | -24.5% |
| `Cc1n[nH]c(C)c1CCN(C)C(=O)C(c1cccnc1)N1CCOCC1` (centres unmarked) | -12.92% |
| `CCn1ccnc1CN(C)Cc1nc(Cc2cccc(F)c2)no1` | 7.455% and 1.923% |
| `COCCN(Cc1cccc(C#N)c1)Cc1nnsc1Cl` | -4.095% |
| `COCCN1CCC(CNC(=O)c2cc(Cl)c[nH]2)CC1` | 13.02% |
| `O=C(N1CCOCC1)N1CCN(CC(O)c2ccc(F)cc2)CC1` (centres unmarked) | -46.15% and -2.754% |
| `Cc1nc(C2CCCN2C(=O)Cn2cncn2)no1` (centres unmarked) | -8.678% |
| `Cc1nc(C2CCCN2CC(=O)NCCc2ccc(Cl)cc2)no1` (centres unmarked) | -17.64% and -3.203% |
| `O=C(O)C(F)(F)F.O=C(O)c1cc2c(nc1-c1ccsc1)CCN(C(=O)C1CC1)CC2` | -4.091% and -12.8% |
| `CN(C)CCNC(=O)c1ccc(OC2CCN(CC3CC3)CC2)c(Cl)c1` | -3.281% and 2.982% |
| `CC(C)Cc1nc(CN2CCC(N3CCN(C)C3=O)CC2)no1` | -6.426% |
| `O=C(O)C(F)(F)F.[H][C@]12CCC[C@@H](CNc3ccccn3)[C@@]1([H])CN(Cc1cc[nH]n1)C2` | -27.81% |
| `c1ccc(CCCN2CC[C@H](c3nnc(-c4ccccc4)o3)C2)cc1` | 18.59% and 5.832% |
| `CC(C)c1ncc(Cl)c(C(=O)N2CCCN3CCCC3C2)n1` (centres unmarked) | 13.25% |
| `CN(Cc1cccnc1)C1CCCN(Cc2noc(C3CC3)n2)C1` (centres unmarked) | -17.04% |
| `[H][C@]12CC[C@]([H])(CN(C(=O)Cc3c(C)nc(CC)[nH]c3=O)C1)N(CCC)C2` | -1.943% and 1.547% |
| `O=C(c1cc(-n2cnnn2)ccc1Cl)N1CCCCCC1` | -23.18% |
| `Cn1ccnc1CN1CCC(CCC(=O)Nc2ccccc2Cl)CC1` | 3.801% and 28.84% |
| `Cn1nccc1-c1nnn2c1COCC(CNC1CCOCC1)C2.O=C(O)C(F)(F)F.O=C(O)C(F)(F)F` (centres unmarked) | 3.467% |
| `Cn1cc(-c2nc(C(=O)N3CCCC3Cn3cccn3)cs2)cn1` (centres unmarked) | -19.5% |
| `Cc1nsc(NC2CCOC3(CCCC3)C2)n1` (centres unmarked) | 10.84% |
| `Cc1c(C)n2c(SCC(=O)N3CCC(C)CC3)nnc2[nH]c1=O` | -3.617% and -7.094% |
| `CN(CC(F)(F)F)C(=O)CNC(=O)Cc1cccc(O)c1` | -20.59% |
| `CCc1nc(CN2CCCN(C(=O)CCSC)CC2)cs1` | 1.683% |
| `C[C@@H]1CN(C(=O)c2cc(Cn3ccc4ccccc43)[nH]n2)C[C@H](C)O1` | 15.06% |
| `O=C(O)C(F)(F)F.O=C(O)C(F)(F)F.O=C(O)C(F)(F)F.[H][C@@]12CN(Cc3ccncc3)C[C@]1([H])OCCN2c1ccc(C)nn1` | -2.751% |
| `Cc1ccc(CN2CCCC(c3nnc(CN4CCCCC4)n3C)C2)s1` (centres unmarked) | -21.51% |
| `CN1CCOC(C(=O)Nc2nc(-c3ccccc3F)n[nH]2)C1` (centres unmarked) | 24.28% and -0.9788% |
| `Cc1ccc(CN2CCc3ncnc(OC(C)C)c3CC2)s1.O=C(O)C(F)(F)F` | 22.44% and 16.32% |
| `NS(=O)(=O)CCNC(=O)c1ccc(-c2ccc(F)cc2)cc1F` | -29.67% |
| `[H][C@]12CC[C@@]3(N=C(CC)N(CC(C)C)C3=O)[C@@]1([H])CN(S(=O)(=O)CC)C2` | 5.783% |
| `CC(C(=O)NCCOc1ccc(F)cc1)n1cncn1` (centres unmarked) | -46.6% |
| `O=C(c1ccnc(C2CCNCC2)c1)N1CCCC(CO)C1` (centres unmarked) | 6.506% |
| `NC(=O)c1cc2c(nc1Oc1cccc(CN3CCCC3)c1F)CCC2` | 18.52% |
| `O=C1NC(C(=O)NCc2cccnc2Oc2ccc(F)c(F)c2)CO1` (centres unmarked) | -5.272% |

Once more, the final 6:

compound,Percent Effect
NS(=O)(=O)CCNC(=O)c1ccc(-c2ccc(F)cc2)cc1F,-29.67%
[H][C@]12CC[C@@]3(N=C(CC)N(CC(C)C)C3=O)[C@@]1([H])CN(S(=O)(=O)CC)C2,5.783%
CC(C(=O)NCCOc1ccc(F)cc1)n1cncn1 (centres unmarked),-46.6%
O=C(c1ccnc(C2CCNCC2)c1)N1CCCC(CO)C1 (centres unmarked),6.506%
NC(=O)c1cc2c(nc1Oc1cccc(CN3CCCC3)c1F)CCC2,18.52%
O=C1NC(C(=O)NCc2cccnc2Oc2ccc(F)c(F)c2)CO1 (centres unmarked),-5.272%

Measurements from “University of Dundee, Small-Polar-MMV Screening Library” (2021), ChEMBL document CHEMBL3988442.